The values that follow come from PMC9733332.

The chains behind the UniProt entries cited, without tags or fusion partners. Residues count along the entry.
GFP-TDP-CTF (25-kDa C-terminal fragment of TDP-43, 208–414) (Q13148, residues 208-414): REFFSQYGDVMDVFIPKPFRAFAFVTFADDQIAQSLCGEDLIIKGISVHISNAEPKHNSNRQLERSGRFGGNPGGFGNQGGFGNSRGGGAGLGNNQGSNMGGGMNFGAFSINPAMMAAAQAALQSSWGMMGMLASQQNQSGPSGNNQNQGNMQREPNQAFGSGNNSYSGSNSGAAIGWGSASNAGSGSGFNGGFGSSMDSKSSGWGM
GFP-TDP-PrLD (prion-like domain of TDP-43, aa275–414) (Q13148, residues 275-414): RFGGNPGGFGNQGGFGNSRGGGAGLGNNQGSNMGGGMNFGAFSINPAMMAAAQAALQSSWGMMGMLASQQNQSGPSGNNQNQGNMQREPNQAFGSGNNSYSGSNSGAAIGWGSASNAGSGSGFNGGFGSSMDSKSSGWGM
UniProt P37198: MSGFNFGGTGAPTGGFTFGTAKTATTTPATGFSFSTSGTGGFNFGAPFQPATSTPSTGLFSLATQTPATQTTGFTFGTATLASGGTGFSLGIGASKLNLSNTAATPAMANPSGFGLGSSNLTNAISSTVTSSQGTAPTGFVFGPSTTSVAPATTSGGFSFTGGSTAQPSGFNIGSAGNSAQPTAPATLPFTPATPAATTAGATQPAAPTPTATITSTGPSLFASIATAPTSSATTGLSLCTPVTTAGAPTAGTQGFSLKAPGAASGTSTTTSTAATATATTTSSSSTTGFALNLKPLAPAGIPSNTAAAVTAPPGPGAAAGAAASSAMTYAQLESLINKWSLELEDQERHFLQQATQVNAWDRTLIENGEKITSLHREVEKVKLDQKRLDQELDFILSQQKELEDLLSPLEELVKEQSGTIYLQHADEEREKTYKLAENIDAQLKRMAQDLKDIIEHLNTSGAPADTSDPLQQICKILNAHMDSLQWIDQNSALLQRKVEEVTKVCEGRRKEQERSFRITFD
UniProt P52948, residues 1-880: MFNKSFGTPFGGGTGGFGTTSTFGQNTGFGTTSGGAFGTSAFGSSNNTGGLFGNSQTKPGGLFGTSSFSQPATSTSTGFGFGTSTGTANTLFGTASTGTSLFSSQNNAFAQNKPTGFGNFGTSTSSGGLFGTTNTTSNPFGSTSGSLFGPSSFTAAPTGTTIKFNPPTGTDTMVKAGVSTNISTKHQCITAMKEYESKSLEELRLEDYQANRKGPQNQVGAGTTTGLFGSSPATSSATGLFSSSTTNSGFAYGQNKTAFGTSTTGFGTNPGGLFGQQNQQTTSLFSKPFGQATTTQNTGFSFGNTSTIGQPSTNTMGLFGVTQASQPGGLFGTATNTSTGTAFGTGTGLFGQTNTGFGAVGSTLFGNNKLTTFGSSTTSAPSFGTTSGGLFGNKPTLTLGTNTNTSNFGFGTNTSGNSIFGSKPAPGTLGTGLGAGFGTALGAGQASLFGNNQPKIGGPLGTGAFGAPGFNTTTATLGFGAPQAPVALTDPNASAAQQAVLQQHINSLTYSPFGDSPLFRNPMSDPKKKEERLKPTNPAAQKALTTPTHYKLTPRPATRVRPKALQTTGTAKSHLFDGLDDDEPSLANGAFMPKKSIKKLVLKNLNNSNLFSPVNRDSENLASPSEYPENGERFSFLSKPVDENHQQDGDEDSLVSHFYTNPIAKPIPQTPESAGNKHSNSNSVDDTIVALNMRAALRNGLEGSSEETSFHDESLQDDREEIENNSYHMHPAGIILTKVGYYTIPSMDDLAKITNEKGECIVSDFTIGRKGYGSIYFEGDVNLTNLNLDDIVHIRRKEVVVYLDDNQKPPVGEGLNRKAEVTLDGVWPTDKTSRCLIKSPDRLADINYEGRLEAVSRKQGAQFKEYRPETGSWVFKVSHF

Results are given in words; binding and its absence hold for the method and conditions named. In cells and extracts the contact can be indirect. Some entries that bind do so weakly or less than the wild type.

The target in assay [1] is GFP-TDP-CTF (25-kDa C-terminal fragment of TDP-43, 208–414) (human) (UniProt Q13148). In words: co-IP; GFP-Trap magnetic beads on lysates of HEK293T cells expressing GFP-tagged TDP-43 constructs (bait); endogenous partners detected by western blot (called pull-down in the text for TDP-PrLD).
Assay [2] has as its target GFP-TDP-PrLD (prion-like domain of TDP-43, aa275–414) (human) (UniProt Q13148). The assay is described as above.

Take “Nup62 (endogenous) (from UniProt P37198 1-522)”: the binding result in assay [1] and in assay [2] was “binds” in each case.

As for “Nup98 (endogenous) (from UniProt P52948 1-880)”, the binding result in assay [1] and in assay [2] was “binds” each time.
